{"source": "patent US10139394B2", "about": "“Method for controlling cancer metastasis or cancer cell migration by modulating the cellular level of lysyl tRNA synthetase” (Medicinal Bioconvergence Research Center, priority 2008, dated 2018)", "key": {"[1]": {"test_system": "KRS and EPRS", "test": "Co-immunoprecipitation of KRS with EPRS (multi-ARS complex)", "assay_type": "cell-based", "settings": "A549 cells; FIG. 12", "experimental": "(§1) In FIG. 7, A549 cells were treated with laminin (10 ug/ml) and the level of 67LR, 37LRP and KRS was determined by Western blotting at the indicated times. Hsp90 and Cadherin were used as markers for cytoplasm and membrane, respectively. In FIG. 8, A549 cells untreated or treated with laminin for 1 h were subjected to immunofluorescence staining with anti-67LR (MLuC5, Santacruz, sc-59732) (red) and -KRS antibodies (green). In FIG. 9, A549 cells were treated with U73122 (U), staurosporin (ST) and LY294002 (LY) that inhibit PLC-gamma, PKC and PI3K, respectively, for 3 hr, then with laminin for 1 hr and checked how these kinase inhibitors would affect the membrane and cytoplasmic level of 67LR and KRS. In FIG. 10, A549 cells were transfected with Myc-KRS and incubated for 24 h. The cells were treated with the indicated chemicals and then with laminin as above. Myc-KRS was immunoprecipitated, and immunoblotted with anti-p-Thr, -Ser, and -Tyr antibodies. In FIG. 11, A549 cells were transfected with Myc-KRS and cultivated for 24 hr. The transfectants were pre-treated with LY294002 for 3 hr and then treated with laminin for 1 h. Myc-KRS was immunoprecipitated and co-precipitation of 67LR was determined by Western blotting. […] EPRS (glutamyl-prolyl-tRNA synthetase) was immunoprecipitated with its specific antibody (AbCam), and co-immunoprecipitation of KRS was determined by Western blotting (upper). […]"}, "[2]": {"test_system": "membrane translocation of KRS", "test": "Laminin-dependent membrane translocation of KRS and 67LR, cell fractionation and Western blotting", "assay_type": "cell-based", "settings": "A549 cells; inhibitor for 3 hr, then laminin for 1 hr; FIG. 9 upper", "experimental": "as §1"}, "[3]": {"test_system": "KRS and 67LR", "test": "Co-immunoprecipitation of KRS with 67LR", "assay_type": "cell-based, human", "settings": "Myc-KRS transfected A549 cells; pre-treated 3 hr, then laminin 1 h; FIG. 11", "experimental": "FIGS. 1 to 6 show specific interaction between human KRS and laminin receptor. In FIG. 1, the interaction between full-length human KRS and 37LRP/p40 was determined by yeast two hybrid assay. AIMP1 and AIMP2, the two components of the multi-ARS complex, were used as positive and negative control, respectively. The positive interaction is indicated by blue colony formation on yeast medium containing X-gal. In FIG. 2, 37LRP was synthesized by in vitro translation in the presence of [^35S] methionine and subjected to pull-down with GST-KRS or GST. 37LRP co-precipitated with GST-KRS was detected by autoradiography. In FIG. 3, The peptide regions of KRS and 37LRP involved in their interaction was determined by yeast two hybrid assay as above. […] Myc-KRS was immunoprecipitated with anti-Myc antibody and co-precipitated 67LR and 37LRP were determined by immunoblotting. […] The cells were separated to cytoplasmic and membrane fractions and immunoprecipitated with anti-Myc antibody and co-precipitation of 37LRP and 67LR was determined by Western blotting. […]\nIn FIG. 7, A549 cells were treated with laminin (10 ug/ml) and the level of 67LR, 37LRP and KRS was determined by Western blotting at the indicated times. […] Myc-KRS was immunoprecipitated and co-precipitation of 67LR was determined by Western blotting. […]"}, "[4]": {"test_system": "phosphorylation of KRS", "test": "Laminin-induced phosphorylation of Myc-KRS, immunoprecipitation and immunoblot with anti-p-Thr, -Ser, -Tyr antibodies", "assay_type": "cell-based, human", "settings": "Myc-KRS transfected A549 cells; FIG. 10", "experimental": "as §1"}}, "note": "At least one compound was matched to its structure with a doubt left.", "data": [{"compound": "O=c1cc(N2CCOCC2)oc2c(-c3ccccc3)cccc12", "note": "[LY294002, reference compound]", "values": [{"measurement": "KRS binding to EPRS on laminin treatment after pre-treatment", "setting": "[1]", "result": "not affected by laminin treatment"}, {"measurement": "Laminin-dependent increase of KRS and 67LR in the membrane fraction", "setting": "[2]", "result": "blocked"}, {"measurement": "laminin-induced association of KRS with 67LR", "setting": "[3]", "result": "suppressed"}, {"measurement": "laminin-induced phosphorylated KRS at threonine and serine in presence of inhibitor", "setting": "[4]", "result": "blocked"}]}]}
